Negatives hold for the conditions tested. Where a protein sequence is shown, tags need not be part of it. For some assays here: For at least one entry, the source does not settle the construct or the ends of the probe.
How the values were obtained:
[1] = target: T1, MnoR (Mycobacterium smegmatis) (UniProt A0R5L8); assay: EMSA; details: 10 ng salmon sperm DNA, up to 10 µM MnoR; EMSA: 50 mM Tris-HCl (pH not stated), 100 mM NaCl, 10 mM MgCl2, 100 ug/ml BSA, 5% glycerol, 5 nM DNA, 30 min 25 °C, 5% native gel at 4 °C; recombinant protein; residues 1-216; protein details: N-terminal 6xHis; label: 5'-Cy5 on strand 1
T1 sequence (looked up): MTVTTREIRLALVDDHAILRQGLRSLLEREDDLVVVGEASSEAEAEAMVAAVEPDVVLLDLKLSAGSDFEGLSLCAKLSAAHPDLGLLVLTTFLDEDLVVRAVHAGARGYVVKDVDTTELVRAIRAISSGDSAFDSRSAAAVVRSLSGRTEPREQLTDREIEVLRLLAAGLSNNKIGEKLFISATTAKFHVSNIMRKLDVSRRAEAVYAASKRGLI

[2] = target: T1, MnoR (Mycobacterium smegmatis); assay: MST; details: PBS-T, room temperature, DNA 60 nM (perfect), 15 nM (2MM), 120 nM (4MM), recombinant protein, residues 1-216, protein details: N-terminal 6xHis, label: 5'-Cy5 on strand 1

Sequence	binding result [1]	Kd [2] [µM]	binding result ([2]; up to 27.5 µM MnoR)
ACCTGGCGGATCTGAGCCCGGCAGGCGATCCGCACACCGGTACCGTGCTGGTGGGCGCGAGCCCCGAGTTGCTGGTCGCCCGCGACG / CGTCGCGGGCGACCAGCAACTCGGGGCTCGCGCCCACCAAGCACGGTACCGGTGTGCGGATCGCCTGCCGGGCTCAGATCCGCCAGGT [mno 2MM]	no binding	11.7	–
CACGCTGATCACGTCCGACGTCGACGAGCGCGACCAGCCGTTCATCACCGGTGAGCGCACCAAGGAAGGCTTCTTCCGCGTGAAGAA (double strand) [mno 4MM]	no binding	–	no binding
GCTGGAGGAGGCGTTCACCGCTGACTGGCTCGCCCAGCACTCCTAAGCCGGTGGGCGCCGTCACCCGCGGCACCACCGGTTACAACC (double strand) [mno 3MM]	no binding	–	–

— article PMC11303327, “MnoSR removal in Mycobacterium smegmatis triggers broad transcriptional response to 1,3-propanediol and glucose as sole carbon sources”
